We go through six compounds from the odorant receptor screen of Mainland et al. (2015).

Among the test systems are OR14L1 clone 1029; OR1A1 P285S clone 1531; OR1A1 R128H clone 1528; OR1A1 V233M clone 1287; OR1A1 V233M clone 1530; OR1A1 clone 1529; OR1A2 clone 1158; OR1C1 clone 1044; OR1D2 clone 1376; OR1D5 clone 1289; OR1D5 clone 1692; OR1E1 clone 1257; OR1E1 clone 1546; OR1E2 C27R clone 1447; OR1E2 clone 1517; OR1F1 F75S clone 1281; OR1F12 clone 1694; OR1G1 clone 1488; OR1J1 clone 1696.

What all share (test): odorant receptor activation (CRE luciferase / Renilla) (fold of no-odor wells); higher = more activation
Common to all, as to conditions: 100 µM

Experiment [1] deals with OR1I1 P139R/Y252S clone 1468.

Values joined by “and” are separate entries in the source; they are usually repeats but may differ in a detail not shown here. Equal entries are not always repeated. Some of the results follow. Single wells; the ratio to wells without odorant was worked out here, and repeats agree poorly.

Take `CCCCCCCOC(C)=O` [heptyl acetate]: the odorant receptor activation in the experiment on OR14L1 clone 1029 was 0.809; with OR1A1 P285S clone 1531, 0.641 and 1.39; with OR1A1 R128H clone 1528, 0.731 and 1.56; in the experiment on OR1A1 V233M clone 1287 it was 1.43 and 1.05 and 1.26; in the experiment with OR1A1 V233M clone 1530, 1.34 and 1.56; with OR1A1 clone 1529, 0.753 and 1.39. The odorant receptor activation with OR1A2 clone 1158 is 0.917; with OR1C1 clone 1044, 0.473; in the experiment with OR1D2 clone 1376, 1.31; in the experiment on OR1D5 clone 1289, 0.596 and 1.05; in the experiment with OR1D5 clone 1692, 0.791; with OR1E1 clone 1257 it was 0.909 and 1.19. Moreover, the odorant receptor activation is 1.03 and 1.12 in the experiment on OR1E1 clone 1546; 0.973 in the experiment with OR1E2 C27R clone 1447; 0.662 and 1.19 in the experiment on OR1E2 clone 1517; 1.36 and 1.22 in the experiment with OR1F1 F75S clone 1281; 0.67 in the experiment on OR1F12 clone 1694; 1.14 and 1.38 with OR1G1 clone 1488. Further, the odorant receptor activation in experiment [1] was 1.03 and 1.42; in the experiment with OR1J1 clone 1696, 0.739.

On to `CCCCCC(=O)O` [caproic acid], for which the odorant receptor activation in the experiment on OR14L1 clone 1029 was 0.768; in the experiment with OR1A1 P285S clone 1531, 1.15; in the experiment on OR1A1 R128H clone 1528 it was 1.09; with OR1A1 V233M clone 1287, 1.17 and 0.786; in the experiment on OR1A1 V233M clone 1530, 0.862; in the experiment with OR1A1 clone 1529, 0.903. For the same compound, the odorant receptor activation was 0.851 in the experiment on OR1A2 clone 1158; 0.926 in the experiment with OR1C1 clone 1044; 0.162 with OR1D2 clone 1376; 0.773 with OR1D5 clone 1289; 0.831 in the experiment on OR1D5 clone 1692; 0.818 with OR1E1 clone 1257. Besides, the odorant receptor activation in the experiment with OR1E1 clone 1546 was found to be 0.687; in the experiment with OR1E2 C27R clone 1447, 0.125; with OR1E2 clone 1517, 0.969; in the experiment on OR1F1 F75S clone 1281 it was 1.07; in the experiment with OR1F12 clone 1694 it was 0.917; in the experiment on OR1G1 clone 1488 it was 0.827. Moreover, the values for the odorant receptor activation (in experiment [1]; with OR1J1 clone 1696) were 1.29 and 0.943, respectively.

Regarding `COc1cc(C)ccc1O` [2-methoxy-4-methylphenol], the odorant receptor activation in the experiment on OR14L1 clone 1029 was 2.47; with OR1A1 P285S clone 1531 it was 0.716; in the experiment on OR1A1 R128H clone 1528, 0.851; in the experiment with OR1A1 V233M clone 1287 it was 1.16 and 1.75; with OR1A1 V233M clone 1530, 1.21; in the experiment on OR1A1 clone 1529, 0.918. For the same compound, the odorant receptor activation in the experiment with OR1A2 clone 1158 came out at 1.24; with OR1C1 clone 1044, 1.79; in the experiment on OR1D2 clone 1376, 0.739; in the experiment with OR1D5 clone 1289, 0.829; with OR1D5 clone 1692, 1.03; in the experiment with OR1E1 clone 1257, 1.04. Besides, the odorant receptor activation in the experiment on OR1E1 clone 1546 was found to be 1.07; with OR1E2 C27R clone 1447, 1.03; with OR1E2 clone 1517, 0.992; in the experiment on OR1F1 F75S clone 1281, 0.727; with OR1F12 clone 1694 it was 0.864; in the experiment on OR1G1 clone 1488, 0.721. Further, the odorant receptor activation in experiment [1] amounted to 0.89; with OR1J1 clone 1696, 0.882.

In the case of `CC/C=C\CCO` [cis-3-hexen-1-ol], the odorant receptor activation was 0.893 in the experiment on OR14L1 clone 1029; 1.24 with OR1A1 P285S clone 1531; 0.902 in the experiment on OR1A1 R128H clone 1528; 1.32 and 1.02 in the experiment with OR1A1 V233M clone 1287; 0.853 with OR1A1 V233M clone 1530; 1.14 in the experiment with OR1A1 clone 1529. In addition, the odorant receptor activation with OR1A2 clone 1158 amounted to 0.93; in the experiment on OR1C1 clone 1044, 0.824; in the experiment with OR1D2 clone 1376, 0.189; in the experiment on OR1D5 clone 1289 it was 0.924; in the experiment with OR1D5 clone 1692 it was 1.04; with OR1E1 clone 1257, 0.97. Further, the odorant receptor activation in the experiment on OR1E1 clone 1546 came to 0.721; with OR1E2 C27R clone 1447 it was 0.143; in the experiment on OR1E2 clone 1517, 0.989; in the experiment with OR1F1 F75S clone 1281 it was 1.24; in the experiment on OR1F12 clone 1694, 1.13; in the experiment with OR1G1 clone 1488, 0.877. The odorant receptor activation in experiment [1] is 1.18; with OR1J1 clone 1696, 1.26.

For `c1cnccn1` [pyrazine], the odorant receptor activation was 0.955 with OR14L1 clone 1029; 0.855 in the experiment on OR1A1 P285S clone 1531; 0.905 in the experiment with OR1A1 R128H clone 1528; 0.874 and 1.09 with OR1A1 V233M clone 1287; 1.02 in the experiment with OR1A1 V233M clone 1530; 0.991 in the experiment with OR1A1 clone 1529. The odorant receptor activation in the experiment on OR1A2 clone 1158 turned out to be 1.13; in the experiment on OR1C1 clone 1044 it was 0.972; in the experiment with OR1D2 clone 1376, 1.11; with OR1D5 clone 1289, 0.791; with OR1D5 clone 1692, 0.677; with OR1E1 clone 1257 it was 0.833. Moreover, the odorant receptor activation worked out at 1.06 with OR1E1 clone 1546; 0.845 with OR1E2 C27R clone 1447; 0.797 in the experiment on OR1E2 clone 1517; 0.825 with OR1F1 F75S clone 1281; 0.824 with OR1F12 clone 1694; 0.848 with OR1G1 clone 1488. For the same compound, the odorant receptor activation in experiment [1] stood at 0.951; in the experiment with OR1J1 clone 1696, 1.01.

As for `CCCCCCCC=O` [octyl aldehyde], the odorant receptor activation in the experiment with OR14L1 clone 1029 was 1.32; in the experiment on OR1A1 P285S clone 1531, 1.02; with OR1A1 R128H clone 1528, 1.11; with OR1A1 V233M clone 1287, 0.585 and 1.12; in the experiment on OR1A1 V233M clone 1530 it was 0.976; in the experiment with OR1A1 clone 1529, 0.797. Also, the odorant receptor activation with OR1A2 clone 1158 amounted to 0.917; with OR1C1 clone 1044, 1.23; with OR1D2 clone 1376 it was 0.961; in the experiment on OR1D5 clone 1289, 1.12; in the experiment with OR1D5 clone 1692 it was 0.75; with OR1E1 clone 1257, 1.07. In addition, the odorant receptor activation was 0.739 in the experiment on OR1E1 clone 1546; 0.806 in the experiment on OR1E2 C27R clone 1447; 1.64 with OR1E2 clone 1517; 1 with OR1F1 F75S clone 1281; 0.746 with OR1F12 clone 1694; 1.1 with OR1G1 clone 1488. Further, the odorant receptor activation was 1.04 in experiment [1] and 0.762 with OR1J1 clone 1696.
